Laboratory results taken from patent US9572820B2, “Methods of treating autophagy-associated disorders and related pharmaceutical compositions, diagnostics, screening techniques and kits” (priority 2011, dated 2017).
Where two headings read alike, the source gives them in different places.

Tested on: LC3-GFP/RFP HeLa cells
Assay: High-content imaging screen of LC3-GFP/RFP puncta (Cellomics ArrayScan)
Type: cell-based

SMILES	modulation of autophagy (agonist/inducer or antagonist/inhibitor) (LC3-GFP/RFP puncta per cell, 4 hours incubation, hit = 3 standard deviations above or below mean of negative control wells)	modulation of autophagy (agonist/inducer or antagonist/inhibitor)
CCN(CC)CCOC(=O)C1(C2CCCCC2)CCCCC1 [dicyclomine]	agonists or inducers of autophagy	–
CC(C)n1nc(-c2cc3cc(O)ccc3[nH]2)c2c(N)ncnc21 [pp242]	–	stronger inducer of autophagy
